The whole screen tested about 580,000 compounds, of which about 6,100 (1.1%) were called active. The shares of active, inactive and inconclusive entries below differ from those in the screen. The call rests on the fitted dose curve; in most records, active means well fitted inhibition curve with a large enough effect; inconclusive means small, poorly fitted or top-dose-only effect, or another doubt; inactive means no such curve, though single readings can be large or run the other way. Potencies of inconclusive entries are doubtful fits and often do not repeat.
target: Polyunsaturated fatty acid lipoxygenase ALOX12 (Homo sapiens) (UniProt P18054); experiment: Primary qHTS assay for inhibitors of human arachidonate 12S-lipoxygenase (ALOX12): Round 2; settings: purified 12hLO, xylenol orange hydroperoxide absorbance; series mostly up to 108 µM
In short: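 Hydroperoxide product was detected by ferrous iron/xylenol orange as the 573 to 405 nm absorbance ratio. Arachidonic acid at 40 uM (final) was turned over for 30 min at room temperature by 150 nM human 12hLO, pH 7.0 Hepes buffer, after 15 min compound preincubation.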
Potency means the concentration at half of the fitted maximal effect.

Sequences of proteins named here, by UniProt entry; tags and fusion partners are left off. A change or cut given only in a name is not applied to a line headed by its entry.
UniProt P18054: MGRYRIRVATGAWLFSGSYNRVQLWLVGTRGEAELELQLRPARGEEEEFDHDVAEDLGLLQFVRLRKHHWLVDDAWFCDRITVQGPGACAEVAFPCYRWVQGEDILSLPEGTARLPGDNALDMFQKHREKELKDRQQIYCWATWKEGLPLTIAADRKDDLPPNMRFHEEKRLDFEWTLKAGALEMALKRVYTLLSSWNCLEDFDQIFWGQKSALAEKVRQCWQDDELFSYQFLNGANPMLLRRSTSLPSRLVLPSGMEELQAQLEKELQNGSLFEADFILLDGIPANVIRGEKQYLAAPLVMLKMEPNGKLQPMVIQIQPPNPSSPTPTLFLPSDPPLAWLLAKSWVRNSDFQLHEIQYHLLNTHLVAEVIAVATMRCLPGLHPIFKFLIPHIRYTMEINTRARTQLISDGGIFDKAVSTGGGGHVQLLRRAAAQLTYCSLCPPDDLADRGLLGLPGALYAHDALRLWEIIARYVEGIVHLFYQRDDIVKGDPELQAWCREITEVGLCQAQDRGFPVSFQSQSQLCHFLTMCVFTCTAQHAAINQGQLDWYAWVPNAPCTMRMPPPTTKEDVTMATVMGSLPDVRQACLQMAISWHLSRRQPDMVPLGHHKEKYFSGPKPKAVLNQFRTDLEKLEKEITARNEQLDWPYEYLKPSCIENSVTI

Row | Structure (SMILES) | Potency
1 | c1cnc2c(N3CCOCC3)nc(N3CCOCC3)nc2n1 | inconclusive: 100 µM [inhibitor, single point]
2 | c1ccc(-c2ccccc2OCCOCCN2CCNCC2)cc1 | inactive
3 | O=C(c1ccc2c(c1)OCO2)N1CCn2c(nnc2C2CCNCC2)C1 | inconclusive: 2.27 µM [inhibitor, partial curve]
4 | CCS(=O)(=O)Nc1ccc(C(=O)CC2(O)C(=O)Nc3ccc(Br)cc32)cc1 (stereo not drawn) | inactive
5 | O=C(NCc1cccnc1)c1ccc(Cl)c(Cl)c1 | inactive
6 | COc1ccc(-c2[nH]c(-c3ccc(F)cc3)nc2SCC(=O)Nc2ccc(OC)c(OC)c2)cc1 | inactive
7 | CCCCn1c(-c2csc3c2CCCC3)n[nH]c1=S | inconclusive: 17.8 µM [inhibitor, full curve, poor fit]
8 | COc1cc2c(cc1OC)CN(C(=O)c1cc(Cl)nc(Cl)c1)CC2 | inconclusive: 126 µM [inhibitor, single point]
9 | CCc1ccc(NC(=O)/C(C#N)=C/c2cc3ccc(C)cc3nc2N2CCOCC2)cc1 | inactive
10 | CC(C)(C)n1nnnc1CN1CCSCC1 | inconclusive: 31.6 µM [inhibitor, partial curve, poor fit]
11 | COc1ccc(NC(=O)C2Cc3c(-c4ccc(NC(C)=O)cc4)ccnc3O2)cc1OC (stereo not drawn) | inconclusive: 100 µM [inhibitor, single point]
12 | O=C(C1CC(=O)N(c2n[nH]c3cccc(F)c23)C1)N1CCN(Cc2ccccc2)CC1 (stereo not drawn) | inactive
13 | CCOC(=O)[C@H](CCc1ccccc1)N[C@@H](C)C(=O)N1[C@@H](C(=O)O)C[C@H]2CCC[C@@H]21 | inconclusive: 54.4 µM [inhibitor, partial curve, poor fit]
14 | NC(N)=NS(=O)(=O)c1ccc(NC(=S)NC(=O)c2sc3ccccc3c2Cl)cc1 | inactive
15 | Fc1ccc(-n2ncc3c(Nc4ccc(Oc5ccc(Cl)cc5)cc4)ncnc32)cc1 | inactive
16 | CC1(c2ccccc2)N(Cc2ccccc2C#N)C(=O)OC12CCN(Cc1ccccc1F)CC2 (stereo not drawn) | inactive
17 | COc1cccc2sc(N3CCN(C(=O)CCS(=O)(=O)c4ccc(F)cc4)CC3)nc12 | inconclusive: 126 µM [inhibitor, partial curve, poor fit]
18 | CN1CCN(c2ccc3nc(-c4c(N)c5c(F)cccc5[nH]c4=O)[nH]c3c2)CC1 | inconclusive: 48.5 µM [inhibitor, single point]
19 | CCOC(=O)c1[nH]c2cc(OC)c(OC)cc2c1NC(=O)CCN1CCC(C(N)=O)CC1 | inactive
20 | O=C(NC1CCCC1)C1C(c2ccccc2)=Nc2ccccc2N1C(=O)c1ccc(C(F)(F)F)cc1 (stereo not drawn) | inconclusive: 39.8 µM [inhibitor, partial curve, poor fit]
21 | Cc1ccc(CNC(=O)C(=O)NCC(c2cccnc2)N2CCN(c3ccccc3F)CC2)cc1 (stereo not drawn) | inactive
22 | Cc1cccc(C)c1NC(=O)/C(C#N)=C\c1ccc(OC(F)F)cc1 | inactive

Row | Structure (SMILES) | Potency
23 | O=C(Nc1ccccc1F)c1ccc(CN2CCc3ccccc3C2)cc1 | inactive
24 | Cc1ccc(C(=O)Cn2nnc3ccccc32)cc1 | inconclusive: 1.78 µM [inhibitor, full curve, poor fit]
25 | Cn1c(=O)c2c(-c3ccccc3)n3c(c2n(C)c1=O)C(c1coc2ccccc2c1=O)OCC3(C)C (stereo not drawn) | inconclusive: 35.5 µM [inhibitor, partial curve, poor fit]
26 | O=c1oc2ccccc2cc1-c1csc(Nc2ccccc2)n1 | inconclusive: 0.631 µM [inhibitor, full curve, poor fit]
27 | CCOC(=O)N1CCN(C(=O)c2ccc(Oc3ccc([N+](=O)[O-])cc3)cc2)CC1 | inactive
28 | Cc1c(CC(=O)NCC2CCCOC2)c2c(n1CC(C)C)CC(C)(C)CC2=O (stereo not drawn) | inconclusive: 79.4 µM [inhibitor, partial curve]
29 | CC(C)C(OC(=O)c1ccco1)C(=O)NCc1cccs1 (stereo not drawn) | inconclusive: 39.8 µM [inhibitor, partial curve, poor fit]
30 | NS(=O)(=O)c1cccc(C(=O)NC2CCSc3ccccc32)c1 (stereo not drawn) | inactive
31 | CCOc1ccc(CN2CCNC(=O)C2CC(=O)NCCN2CCOC2=O)cc1 (stereo not drawn) | inconclusive: 35.5 µM [inhibitor, single point]
32 | CCCCc1nnc(NC(=O)CN2C(=O)c3ccccc3C2=O)s1 | inactive
33 | Cc1nc(CCNC(=O)CCC2CCCC2)no1 | inconclusive: 79.4 µM [inhibitor, single point]
34 | COc1ccc(NC(=O)CCN2CCN(c3ccccc3F)CC2)c(OC)c1 | inconclusive: 35.5 µM [inhibitor, partial curve, poor fit]
35 | CS(=O)(=O)N1CCN(C(C(=O)O)c2c[nH]c3cc(F)ccc23)CC1 (stereo not drawn) | inconclusive: 44.7 µM [inhibitor, partial curve, poor fit]
36 | CCCCCC(=O)O[C@H](CC(=O)O)C[N+](C)(C)C | inconclusive: 31.6 µM [inhibitor, single point]
37 | CC1(C)OC(=O)C2=C(C[C@@H](CCOCc3ccccc3)O[C@@H]2c2ccc(F)cc2)O1 | inconclusive: 112 µM [inhibitor, single point]
38 | Cc1ccc(-c2nnnn2-c2ccc(C)cc2)cc1 | inconclusive: 126 µM [inhibitor, partial curve, poor fit]
39 | COc1ccc2nc(/C(C#N)=C\c3ccc(C)o3)[nH]c2c1 | inconclusive: 89.1 µM [inhibitor, single point]
40 | COc1ccc(CCc2ccnc3ccccc23)cc1 | inconclusive: 12.6 µM [inhibitor, partial curve, poor fit]
41 | Cc1ccccc1NCc1cc2ccccc2[nH]c1=O | inconclusive: 70.8 µM [inhibitor, partial curve, poor fit]
42 | O=C(Nc1ccc(Oc2ccccc2)cc1)O[C@@H]1CO[C@H]2[C@@H]1OC[C@@H]2NS(=O)(=O)c1ccc(Cl)cc1 | inconclusive: 5.62 µM [inhibitor, full curve]
43 | CCN1CCN(CCNC(=O)c2ccc(CS(=O)c3ccc(Cl)cc3)o2)CC1 (stereo not drawn) | inconclusive: 112 µM [inhibitor, partial curve, poor fit]

An excerpt taken from the entries so far, for reference:
Row | Structure (SMILES) | Potency
26 | O=c1oc2ccccc2cc1-c1csc(Nc2ccccc2)n1 | inconclusive: 0.631 µM [inhibitor, full curve, poor fit]
27 | CCOC(=O)N1CCN(C(=O)c2ccc(Oc3ccc([N+](=O)[O-])cc3)cc2)CC1 | inactive

Source: PubChem BioAssay AID1671190 (National Center for Advancing Translational Sciences (NCATS), 2021)
